Here are results for one molecule from publication doi:10.1101/2022.10.05.511023 (bioRxiv, 2022).

Results are given in words; binding and its absence hold for the method and conditions named. Some binding calls cover weakened binding; strength is not graded here.

Assay [1] addresses T1, farnesylated GBP1 (guanylate binding protein 1) (human), P32455.
T1 chain: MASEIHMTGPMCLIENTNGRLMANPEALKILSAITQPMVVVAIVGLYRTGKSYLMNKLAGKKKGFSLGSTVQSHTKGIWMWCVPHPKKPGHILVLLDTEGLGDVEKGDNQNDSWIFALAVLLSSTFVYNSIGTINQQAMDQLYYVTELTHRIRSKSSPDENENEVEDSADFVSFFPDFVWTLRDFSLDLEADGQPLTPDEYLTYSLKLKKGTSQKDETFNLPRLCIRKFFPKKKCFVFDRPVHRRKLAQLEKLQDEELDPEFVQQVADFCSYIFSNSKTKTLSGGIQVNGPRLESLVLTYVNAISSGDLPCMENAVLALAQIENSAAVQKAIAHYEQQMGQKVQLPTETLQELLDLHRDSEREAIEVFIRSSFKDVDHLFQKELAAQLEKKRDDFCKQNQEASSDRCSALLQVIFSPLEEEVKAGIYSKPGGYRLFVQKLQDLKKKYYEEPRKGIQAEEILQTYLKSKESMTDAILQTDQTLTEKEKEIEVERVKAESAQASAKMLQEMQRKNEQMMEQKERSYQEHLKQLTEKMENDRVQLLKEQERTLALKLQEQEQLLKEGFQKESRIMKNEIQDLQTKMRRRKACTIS
Description: dynamic light scattering. As to conditions: remark: other sources report otherwise.

Assay [2] has as its target T1, farnesylated GBP1 (guanylate binding …). Description: absorbance-based light scattering. As to conditions: remark: other sources report otherwise.

B1: farnesylated GBP1 (guanylate binding protein 1), P32455 1-592 (protein)
chain: MASEIHMTGPMCLIENTNGRLMANPEALKILSAITQPMVVVAIVGLYRTGKSYLMNKLAGKKKGFSLGSTVQSHTKGIWMWCVPHPKKPGHILVLLDTEGLGDVEKGDNQNDSWIFALAVLLSSTFVYNSIGTINQQAMDQLYYVTELTHRIRSKSSPDENENEVEDSADFVSFFPDFVWTLRDFSLDLEADGQPLTPDEYLTYSLKLKKGTSQKDETFNLPRLCIRKFFPKKKCFVFDRPVHRRKLAQLEKLQDEELDPEFVQQVADFCSYIFSNSKTKTLSGGIQVNGPRLESLVLTYVNAISSGDLPCMENAVLALAQIENSAAVQKAIAHYEQQMGQKVQLPTETLQELLDLHRDSEREAIEVFIRSSFKDVDHLFQKELAAQLEKKRDDFCKQNQEASSDRCSALLQVIFSPLEEEVKAGIYSKPGGYRLFVQKLQDLKKKYYEEPRKGIQAEEILQTYLKSKESMTDAILQTDQTLTEKEKEIEVERVKAESAQASAKMLQEMQRKNEQMMEQKERSYQEHLKQLTEKMENDRVQLLKEQERTLALKLQEQEQLLKEGFQKESRIMKNEIQDLQTKMRRRKACTIS
modifications: here or on the partner: farnesylated in vitro (C-terminal farnesyl moiety); farnesylated in vitro (C-terminal farnesyl moiety)
Regarding B1, the binding result in assay [1] and in assay [2] was “binds” in each case.
